The list shows only some results of the screen, not a fair sample: it gathers tests that were run many times, whatever their T/C, doses with no T/C, and many T/C values between a quarter and a half above the control. Other doses and runs of a compound stand elsewhere. T/C is the treated group as % of the vehicle group. Some doses have a count of surviving animals in place of a T/C: the source holds a T/C of zero for them, seemingly a mark for toxic or unscored doses. Some survivor counts are full or nearly so, which does not show that the dose was tolerated: survival well below the control is almost never listed, so the zero probably covers shortened survival too. Survivors were counted at the toxicity check, usually on the fifth day, unless a day is given; later deaths do not show. Schedules are NCI's codes, read here as Q, the interval in days (D) or hours (H), X, the number of doses. For survival time, the PubChem record calls one and a half times the control and up active, and a quarter to a half above the control has no call in these data; cut-offs in other NCI protocols can differ.

Survivor count and T/C data for 28 compounds are collected here from PubChem BioAssay AID248 (DTP/NCI, 2004).

The test system of this assay is L1210 leukemia ip in BDF1 mice, survival T/C. Nature of the assay: NCI In Vivo Anticancer Drug Screen. Data for tumor model L1210 Leukemia (intraperitoneal) in B6D2F1 (BDF1) mice. The conditions noted are these: T/C endpoint: mean survival time, higher T/C = longer survival.
Setting [1] is: dose: 300.0 mg/kg/injection, schedule: Q01DX001 (ip), vehicle: saline.
Setting [2] is: dose: 400.0 mg/kg/injection, schedule: Q04DX003 (ip), vehicle: saline.
[3] abbreviates: dose: 200.0 mg/kg/injection, schedule: Q04DX003 (ip), vehicle: saline.
[4] abbreviates: dose: 200.0 mg/kg/injection, schedule: Q01DX009 (ip), vehicle: saline.
[5] abbreviates: dose: 200.0 mg/kg/injection, schedule: Q04DX003 (ip), vehicle: Klucel (hydroxypropylcellulose) (HPC).
The mark [6] stands for this setting: dose: 400.0 mg/kg/injection, schedule: Q04DX003 (ip), vehicle: Klucel (hydroxypropylcellulose) (HPC).

For the compound `COC(=O)C1Cc2c([nH]c3ccccc23)CN1` (stereo not given), the survivor count runs as follows: (dose: 75.0 mg/kg/injection, schedule: Q04DX003 (ip), vehicle: saline) 3 of 6; (dose: 150.0 mg/kg/injection, schedule: Q04DX003 (ip), vehicle: saline) 1 of 6; (dose: 300.0 mg/kg/injection, schedule: Q04DX003 (ip), vehicle: saline) 1 of 6.
Take `COc1ccc(/C=C/[N+](=O)[O-])cc1`: the survivor count is 3 of 3 (dose: 50.0 mg/kg/injection, schedule: Q04DX002 (ip), vehicle: other) and 0 of 3 (dose: 100.0 mg/kg/injection, schedule: Q04DX002 (ip), vehicle: other).
Regarding `Clc1ccc([O][Sn]([c]2ccccc2)([c]2ccccc2)[c]2ccccc2)c(-c2ccccc2)c1`, the survivor count is, setting by setting: (dose: 20.0 mg/kg/injection, schedule: Q01DX001 (ip), vehicle: saline) 3 of 6; (dose: 40.0 mg/kg/injection, schedule: Q01DX001 (ip), vehicle: saline) 1 of 6; (dose: 80.0 mg/kg/injection, schedule: Q01DX001 (ip), vehicle: saline) 0 of 6.
In the case of `[O]=[Sb]([OH])([c]1ccc(Cl)cc1)[c]1ccc(Cl)cc1`, the survivor count is reported as 2 of 6 (dose: 150.0 mg/kg/injection, schedule: Q01DX001 (ip), vehicle: saline) and 0 of 6 under setting [1].
As to `CCCCCCCCCCCC[n+]1ccc(C(N)=O)cc1`, the survivor count reads like this: (dose: 75.0 mg/kg/injection, schedule: Q01DX009 (ip), vehicle: saline) 0 of 6; (dose: 100.0 mg/kg/injection, schedule: Q01DX001 (ip), vehicle: saline) 0 of 6; (dose: 115.0 mg/kg/injection, schedule: Q01DX009 (ip), vehicle: saline) 0 of 6; (dose: 200.0 mg/kg/injection, schedule: Q01DX001 (ip), vehicle: saline) 0 of 6; (dose: 400.0 mg/kg/injection, schedule: Q01DX001 (ip), vehicle: saline) 0 of 6.
`CC(C)COC(=O)CCCc1ccc(N(CCCl)CCCl)cc1`: the survivor count (dose: 400.0 mg/kg/injection, schedule: Q04DX002 (ip), vehicle: saline) is 1 of 3.
Turning to `CCOC(=O)N/N=C/C(Br)=C\c1ccccc1`, the survivor count (dose: 100.0 mg/kg/injection, schedule: Q01DX009 (ip), vehicle: saline with Tween-80) is reported as 3 of 3 and the survivor count (dose: 400.0 mg/kg/injection, schedule: Q04DX002 (ip), vehicle: saline with Tween-80) was 1 of 3.
Take `C[N+](C)(C)CCOC(=O)c1ccc(CCl)cc1`: the survivor count (dose: 200.0 mg/kg/injection, schedule: Q04DX002 (ip), vehicle: other) was 2 of 3 and the survivor count (dose: 400.0 mg/kg/injection, schedule: Q04DX002 (ip), vehicle: other) is listed as 1 of 3.
Consider `CC1(C)N=C(N)N=C(N)N1c1ccc(OCC(=O)Nc2ccc(S(=O)(=O)F)cc2)cc1`, for which the T/C (dose: 100.0 mg/kg/injection, schedule: Q01DX009 (ip), vehicle: saline) was 129 % of control. The survivor count (dose: 500.0 mg/kg/injection, schedule: Q01DX009 (ip), vehicle: saline) is given as 0 of 6.
Turning to `Cc1ccc(S(=O)(=O)NCCN)cc1`, under setting [2], the survivor count is recorded as 0 of 6.
`O=C(O)c1c(Cl)c(Cl)c(Cl)c(Cl)c1C(=O)O.O=C(O)c1c(Cl)c(Cl)c(Cl)c(Cl)c1C(=O)O.[Pt]`: the survivor count is listed as 2 of 6 (dose: 200.0 mg/kg/injection, schedule: Q04DX003 (ip), vehicle: saline sonified) and 1 of 6 (dose: 400.0 mg/kg/injection, schedule: Q04DX003 (ip), vehicle: saline sonified).
With `CNCC/C=C1\c2ccccc2CCSc2ccccc21`, the survivor count is, setting by setting: under setting [3], 0 of 6; under setting [2], 0 of 6.
Turning to `CCN1CC(CCN2CCOCC2)C(c2ccccc2)(c2ccccc2)C1=O` (stereo not given), the survivor count is given as 0 of 6 under setting [4]; 3 of 4 under setting [3]; 0 of 6 (dose: 400.0 mg/kg/injection, schedule: Q01DX009 (ip), vehicle: saline); 0 of 4 under setting [2].
Regarding `CC(C)(C)C1CCC(=O)C(Cl)C1` (stereo not given), the survivor count (dose: 400.0 mg/kg/injection, schedule: Q01DX009 (ip), vehicle: Klucel (hydroxypropylcellulose) (HPC)) was 0 of 6.
In the case of `CCOC(=O)c1[nH]c2ccccc2c1CN(CC)CC`, the survivor count (dose: 150.0 mg/kg/injection, schedule: Q01DX001 (ip), vehicle: carboxymethylcellulose (CMC)) is 1 of 6 and the survivor count (dose: 300.0 mg/kg/injection, schedule: Q01DX001 (ip), vehicle: carboxymethylcellulose (CMC)) is reported as 2 of 6.
In the case of `CCOC(=O)C1C(=O)C=C(c2ccccc2)CC1c1ccccc1` (stereo not given), for the setting “dose: 100.0 mg/kg/injection, schedule: Q04DX002 (ip), vehicle: saline with Tween-80”, the survivor count is listed as 3 of 3.
With `C=CC[n+]1ccccc1C`, the survivor count (dose: 200.0 mg/kg/injection, schedule: Q01DX009 (ip), vehicle: saline with Tween-80) was 0 of 3.
In the case of `NC(=O)C(=O)NCCCN1CC1`, the survivor count is 1 of 6 under setting [5] and 0 of 6 under setting [6].
`N#CC(Br)(Br)C#N`: the survivor count is given as 0 of 4 (dose: 50.0 mg/kg/injection, schedule: Q01DX001 (ip), vehicle: carboxymethylcellulose (CMC)); 0 of 4 (dose: 100.0 mg/kg/injection, schedule: Q01DX001 (ip), vehicle: carboxymethylcellulose (CMC)); 0 of 4 (dose: 200.0 mg/kg/injection, schedule: Q01DX001 (ip), vehicle: carboxymethylcellulose (CMC)); 0 of 4 (dose: 400.0 mg/kg/injection, schedule: Q01DX001 (ip), vehicle: carboxymethylcellulose (CMC)).
For the compound `CC(C)CCNNCCC(C)C`, the survivor count (dose: 300.0 mg/kg/injection, schedule: Q01DX001 (ip), vehicle: other) was 0 of 6.
As for `CCCCCCCCCc1ccc(OP(Oc2ccccc2)Oc2ccc(CCCCCCCCC)cc2)cc1`, the survivor count under setting [1] is 0 of 6.
For the compound `ClC/C=[CH]/[Sn]([c]1ccccc1)([c]1ccccc1)[c]1ccccc1`, under setting [4], the survivor count was 1 of 3.
For the compound `c1ccc2c(CC3=NCCN3)cccc2c1`, the survivor count (dose: 50.0 mg/kg/injection, schedule: Q01DX009 (ip), vehicle: saline with Tween-80) was 3 of 6.
Turning to `C=C(Br)S(=O)(=O)C(=C)Br`, the survivor count (dose: 25.0 mg/kg/injection, schedule: Q04DX002 (ip), vehicle: alcohol) is reported as 1 of 3; the survivor count (dose: 50.0 mg/kg/injection, schedule: Q04DX002 (ip), vehicle: alcohol) is 0 of 3; the survivor count (dose: 100.0 mg/kg/injection, schedule: Q04DX002 (ip), vehicle: alcohol) is 0 of 3; the survivor count (dose: 200.0 mg/kg/injection, schedule: Q04DX002 (ip), vehicle: alcohol) is listed as 0 of 3; the survivor count (dose: 400.0 mg/kg/injection, schedule: Q04DX002 (ip), vehicle: alcohol) is 0 of 3.
In the case of `O=C1NC(CN2CCCC(O)C2)C(=O)NC1CN1CCCC(O)C1` (stereo not given) (tested in a mixture with another compound), the survivor count (dose: 300.0 mg/kg/injection, schedule: Q01DX009 (ip), vehicle: water) was 2 of 3.
As to `Nc1ccc(S(=O)(=O)F)cc1N`, where the note is “dose: 400.0 mg/kg/injection, schedule: Q01DX009 (ip), vehicle: acetone”, the survivor count is listed as 1 of 6.
For the compound `Cc1nc(Cl)c(CO)c(CO)c1O`, the survivor count (dose: 100.0 mg/kg/injection, schedule: Q04DX003 (ip), vehicle: Klucel (hydroxypropylcellulose) (HPC)) is 0 of 6; the survivor count under setting [5] is reported as 0 of 6; the survivor count under setting [6] is 0 of 6.
As for `N#CCOc1ccc(Cl)cc1`, the survivor count is 5 of 6 (dose: 50.0 mg/kg/injection, schedule: Q01DX009 (ip), vehicle: Klucel (hydroxypropylcellulose) (HPC)); 0 of 6 (dose: 100.0 mg/kg/injection, schedule: Q01DX009 (ip), vehicle: Klucel (hydroxypropylcellulose) (HPC)); 3 of 3 (dose: 200.0 mg/kg/injection, schedule: Q04DX002 (ip), vehicle: Klucel (hydroxypropylcellulose) (HPC)); 0 of 3 (dose: 400.0 mg/kg/injection, schedule: Q04DX002 (ip), vehicle: Klucel (hydroxypropylcellulose) (HPC)).
